# This is one part of the list.
# By UniProt entry, the sequences of proteins in these tests, tags left out. Where a name states a change or a piece, a line headed by the entry shows the natural chain unless it says otherwise.
# UniProt Q8WTS1: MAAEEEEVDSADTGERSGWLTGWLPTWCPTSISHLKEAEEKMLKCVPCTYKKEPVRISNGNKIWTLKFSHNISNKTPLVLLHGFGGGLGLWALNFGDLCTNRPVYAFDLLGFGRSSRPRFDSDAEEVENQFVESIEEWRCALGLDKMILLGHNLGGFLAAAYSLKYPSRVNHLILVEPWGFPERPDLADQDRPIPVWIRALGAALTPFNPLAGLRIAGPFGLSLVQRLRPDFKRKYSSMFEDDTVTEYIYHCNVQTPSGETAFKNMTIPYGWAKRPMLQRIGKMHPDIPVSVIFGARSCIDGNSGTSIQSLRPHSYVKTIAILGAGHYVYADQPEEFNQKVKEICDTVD
# UniProt P08183, whole entry, looked up: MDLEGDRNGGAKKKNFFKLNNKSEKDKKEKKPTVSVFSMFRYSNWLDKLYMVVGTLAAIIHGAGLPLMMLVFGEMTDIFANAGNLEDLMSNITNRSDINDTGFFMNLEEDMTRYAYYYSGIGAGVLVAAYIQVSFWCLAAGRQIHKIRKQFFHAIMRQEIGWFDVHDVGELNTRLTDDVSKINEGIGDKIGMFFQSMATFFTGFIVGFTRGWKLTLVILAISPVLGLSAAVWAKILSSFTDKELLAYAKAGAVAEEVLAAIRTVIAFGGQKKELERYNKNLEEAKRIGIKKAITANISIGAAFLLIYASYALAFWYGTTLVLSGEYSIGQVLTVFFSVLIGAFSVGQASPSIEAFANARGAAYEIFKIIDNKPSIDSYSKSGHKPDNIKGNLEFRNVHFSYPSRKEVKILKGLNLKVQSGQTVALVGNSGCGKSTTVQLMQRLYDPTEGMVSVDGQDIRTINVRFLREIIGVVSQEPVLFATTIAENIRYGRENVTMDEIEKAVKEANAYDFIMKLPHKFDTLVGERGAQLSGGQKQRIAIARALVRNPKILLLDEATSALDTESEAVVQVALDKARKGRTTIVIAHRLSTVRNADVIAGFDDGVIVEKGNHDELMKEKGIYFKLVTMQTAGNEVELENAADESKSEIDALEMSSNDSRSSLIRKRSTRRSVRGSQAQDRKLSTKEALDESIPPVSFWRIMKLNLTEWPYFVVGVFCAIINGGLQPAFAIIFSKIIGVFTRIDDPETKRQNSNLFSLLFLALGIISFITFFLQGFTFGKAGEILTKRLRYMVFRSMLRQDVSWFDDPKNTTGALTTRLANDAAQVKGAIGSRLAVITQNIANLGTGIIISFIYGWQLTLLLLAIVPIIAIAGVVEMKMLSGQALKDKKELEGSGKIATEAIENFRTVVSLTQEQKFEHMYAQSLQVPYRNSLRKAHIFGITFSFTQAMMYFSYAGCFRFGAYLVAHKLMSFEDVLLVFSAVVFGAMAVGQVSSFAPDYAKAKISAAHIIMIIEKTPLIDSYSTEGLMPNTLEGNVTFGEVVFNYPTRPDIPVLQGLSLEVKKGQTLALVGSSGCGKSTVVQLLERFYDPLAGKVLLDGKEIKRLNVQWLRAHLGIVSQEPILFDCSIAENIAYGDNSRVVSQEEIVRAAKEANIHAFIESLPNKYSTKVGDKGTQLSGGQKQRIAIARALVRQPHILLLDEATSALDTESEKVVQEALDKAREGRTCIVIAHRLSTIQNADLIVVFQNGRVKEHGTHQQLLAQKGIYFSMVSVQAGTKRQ
# UniProt P78325: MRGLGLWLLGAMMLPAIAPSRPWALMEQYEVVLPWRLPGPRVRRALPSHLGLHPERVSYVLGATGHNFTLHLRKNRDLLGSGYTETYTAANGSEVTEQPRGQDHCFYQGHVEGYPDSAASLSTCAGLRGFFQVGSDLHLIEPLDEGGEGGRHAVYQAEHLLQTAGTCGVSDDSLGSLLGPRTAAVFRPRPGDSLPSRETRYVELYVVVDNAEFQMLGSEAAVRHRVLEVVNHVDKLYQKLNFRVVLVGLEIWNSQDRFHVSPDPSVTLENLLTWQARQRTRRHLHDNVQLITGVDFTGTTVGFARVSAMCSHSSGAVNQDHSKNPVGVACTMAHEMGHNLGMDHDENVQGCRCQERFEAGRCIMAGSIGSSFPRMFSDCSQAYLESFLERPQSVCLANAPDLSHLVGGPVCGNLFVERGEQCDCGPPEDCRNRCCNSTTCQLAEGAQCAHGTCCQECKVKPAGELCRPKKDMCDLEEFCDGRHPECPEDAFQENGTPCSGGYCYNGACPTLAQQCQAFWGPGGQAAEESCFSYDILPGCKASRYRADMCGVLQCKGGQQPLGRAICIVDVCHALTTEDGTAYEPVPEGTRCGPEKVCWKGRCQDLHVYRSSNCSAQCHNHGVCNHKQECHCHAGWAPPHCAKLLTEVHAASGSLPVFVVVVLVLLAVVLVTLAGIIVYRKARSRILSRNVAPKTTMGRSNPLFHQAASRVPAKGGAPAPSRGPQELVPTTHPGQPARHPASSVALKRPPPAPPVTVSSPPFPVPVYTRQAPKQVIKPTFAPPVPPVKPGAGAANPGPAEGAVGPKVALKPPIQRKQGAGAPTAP
# UniProt Q9UNA0: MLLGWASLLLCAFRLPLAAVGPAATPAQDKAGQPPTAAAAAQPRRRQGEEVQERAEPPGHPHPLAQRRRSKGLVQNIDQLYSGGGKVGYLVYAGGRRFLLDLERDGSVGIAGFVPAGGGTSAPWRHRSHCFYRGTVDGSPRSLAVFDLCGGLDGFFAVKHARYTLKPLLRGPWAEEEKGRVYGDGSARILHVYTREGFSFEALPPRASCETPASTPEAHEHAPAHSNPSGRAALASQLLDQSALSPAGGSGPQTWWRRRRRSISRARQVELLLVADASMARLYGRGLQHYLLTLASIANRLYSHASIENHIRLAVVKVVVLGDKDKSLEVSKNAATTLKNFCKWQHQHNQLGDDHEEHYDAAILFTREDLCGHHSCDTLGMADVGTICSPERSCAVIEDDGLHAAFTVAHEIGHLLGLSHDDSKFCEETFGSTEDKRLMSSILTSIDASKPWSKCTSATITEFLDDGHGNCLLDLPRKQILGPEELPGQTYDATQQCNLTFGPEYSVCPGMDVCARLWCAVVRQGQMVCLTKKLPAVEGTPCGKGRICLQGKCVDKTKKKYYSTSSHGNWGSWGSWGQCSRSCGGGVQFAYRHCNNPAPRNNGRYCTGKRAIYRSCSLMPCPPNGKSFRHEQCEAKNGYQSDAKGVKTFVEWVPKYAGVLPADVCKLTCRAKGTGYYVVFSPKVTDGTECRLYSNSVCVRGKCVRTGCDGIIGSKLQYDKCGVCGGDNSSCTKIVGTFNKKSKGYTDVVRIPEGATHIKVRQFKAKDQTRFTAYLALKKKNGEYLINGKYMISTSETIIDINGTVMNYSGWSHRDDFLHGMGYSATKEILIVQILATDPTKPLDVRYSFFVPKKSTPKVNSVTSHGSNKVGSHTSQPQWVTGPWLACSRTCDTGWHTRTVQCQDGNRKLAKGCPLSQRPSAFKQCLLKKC
# UniProt Q9UKU0: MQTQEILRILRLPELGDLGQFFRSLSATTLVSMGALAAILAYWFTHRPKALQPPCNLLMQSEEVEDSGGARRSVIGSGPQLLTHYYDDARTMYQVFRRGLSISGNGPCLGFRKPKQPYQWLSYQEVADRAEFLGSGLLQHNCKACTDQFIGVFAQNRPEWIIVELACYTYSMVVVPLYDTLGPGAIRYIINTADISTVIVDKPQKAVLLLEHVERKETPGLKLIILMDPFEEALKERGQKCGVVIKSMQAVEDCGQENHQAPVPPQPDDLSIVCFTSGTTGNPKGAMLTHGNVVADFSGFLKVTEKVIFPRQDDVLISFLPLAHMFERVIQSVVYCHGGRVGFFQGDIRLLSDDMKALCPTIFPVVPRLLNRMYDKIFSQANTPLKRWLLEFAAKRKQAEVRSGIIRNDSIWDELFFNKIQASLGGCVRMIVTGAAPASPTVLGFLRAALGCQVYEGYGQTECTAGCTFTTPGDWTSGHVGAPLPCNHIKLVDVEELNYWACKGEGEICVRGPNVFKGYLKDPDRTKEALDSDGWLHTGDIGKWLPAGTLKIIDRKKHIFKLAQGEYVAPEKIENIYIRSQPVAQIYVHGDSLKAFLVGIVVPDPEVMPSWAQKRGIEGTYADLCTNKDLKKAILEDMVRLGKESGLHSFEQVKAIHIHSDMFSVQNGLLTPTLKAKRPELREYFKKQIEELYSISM
# UniProt Q96CM8: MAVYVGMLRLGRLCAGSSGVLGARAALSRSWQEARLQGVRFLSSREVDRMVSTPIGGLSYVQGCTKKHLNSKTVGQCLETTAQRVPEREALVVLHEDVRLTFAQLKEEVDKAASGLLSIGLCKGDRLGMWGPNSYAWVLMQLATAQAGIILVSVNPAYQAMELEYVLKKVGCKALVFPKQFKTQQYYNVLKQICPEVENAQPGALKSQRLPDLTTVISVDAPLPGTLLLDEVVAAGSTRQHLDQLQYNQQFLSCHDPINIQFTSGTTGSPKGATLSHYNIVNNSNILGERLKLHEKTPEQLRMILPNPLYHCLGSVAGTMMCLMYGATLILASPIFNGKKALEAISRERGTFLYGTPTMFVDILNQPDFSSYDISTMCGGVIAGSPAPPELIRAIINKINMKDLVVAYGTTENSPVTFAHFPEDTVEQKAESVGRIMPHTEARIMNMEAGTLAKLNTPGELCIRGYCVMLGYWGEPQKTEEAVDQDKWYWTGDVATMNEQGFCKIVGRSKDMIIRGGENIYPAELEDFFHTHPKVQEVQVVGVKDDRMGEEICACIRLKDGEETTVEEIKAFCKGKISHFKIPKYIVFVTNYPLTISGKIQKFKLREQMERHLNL
# UniProt Q8TB40: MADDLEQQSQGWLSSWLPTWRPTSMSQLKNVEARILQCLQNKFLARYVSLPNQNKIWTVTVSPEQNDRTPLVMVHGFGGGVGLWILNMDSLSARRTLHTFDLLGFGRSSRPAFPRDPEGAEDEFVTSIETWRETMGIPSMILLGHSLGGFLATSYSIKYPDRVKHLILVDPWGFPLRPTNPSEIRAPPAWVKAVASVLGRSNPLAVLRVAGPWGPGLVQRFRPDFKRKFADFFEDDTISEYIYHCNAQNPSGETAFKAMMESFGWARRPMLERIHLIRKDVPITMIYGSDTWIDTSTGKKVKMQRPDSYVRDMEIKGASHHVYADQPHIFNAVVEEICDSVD
# UniProt Q96QU6: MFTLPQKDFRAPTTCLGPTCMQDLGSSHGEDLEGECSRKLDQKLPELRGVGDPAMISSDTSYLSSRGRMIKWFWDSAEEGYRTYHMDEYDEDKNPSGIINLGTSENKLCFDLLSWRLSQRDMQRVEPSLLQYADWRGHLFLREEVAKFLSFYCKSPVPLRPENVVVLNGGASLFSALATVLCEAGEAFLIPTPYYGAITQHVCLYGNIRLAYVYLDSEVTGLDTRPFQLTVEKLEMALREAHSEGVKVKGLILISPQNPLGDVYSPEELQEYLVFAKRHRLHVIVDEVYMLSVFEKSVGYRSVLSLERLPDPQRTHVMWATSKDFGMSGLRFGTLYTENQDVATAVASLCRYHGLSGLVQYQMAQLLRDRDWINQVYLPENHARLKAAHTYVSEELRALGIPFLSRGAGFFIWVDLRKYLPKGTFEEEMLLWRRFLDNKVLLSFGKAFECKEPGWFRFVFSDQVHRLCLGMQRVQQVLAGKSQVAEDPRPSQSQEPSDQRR
# UniProt Q6JQN1: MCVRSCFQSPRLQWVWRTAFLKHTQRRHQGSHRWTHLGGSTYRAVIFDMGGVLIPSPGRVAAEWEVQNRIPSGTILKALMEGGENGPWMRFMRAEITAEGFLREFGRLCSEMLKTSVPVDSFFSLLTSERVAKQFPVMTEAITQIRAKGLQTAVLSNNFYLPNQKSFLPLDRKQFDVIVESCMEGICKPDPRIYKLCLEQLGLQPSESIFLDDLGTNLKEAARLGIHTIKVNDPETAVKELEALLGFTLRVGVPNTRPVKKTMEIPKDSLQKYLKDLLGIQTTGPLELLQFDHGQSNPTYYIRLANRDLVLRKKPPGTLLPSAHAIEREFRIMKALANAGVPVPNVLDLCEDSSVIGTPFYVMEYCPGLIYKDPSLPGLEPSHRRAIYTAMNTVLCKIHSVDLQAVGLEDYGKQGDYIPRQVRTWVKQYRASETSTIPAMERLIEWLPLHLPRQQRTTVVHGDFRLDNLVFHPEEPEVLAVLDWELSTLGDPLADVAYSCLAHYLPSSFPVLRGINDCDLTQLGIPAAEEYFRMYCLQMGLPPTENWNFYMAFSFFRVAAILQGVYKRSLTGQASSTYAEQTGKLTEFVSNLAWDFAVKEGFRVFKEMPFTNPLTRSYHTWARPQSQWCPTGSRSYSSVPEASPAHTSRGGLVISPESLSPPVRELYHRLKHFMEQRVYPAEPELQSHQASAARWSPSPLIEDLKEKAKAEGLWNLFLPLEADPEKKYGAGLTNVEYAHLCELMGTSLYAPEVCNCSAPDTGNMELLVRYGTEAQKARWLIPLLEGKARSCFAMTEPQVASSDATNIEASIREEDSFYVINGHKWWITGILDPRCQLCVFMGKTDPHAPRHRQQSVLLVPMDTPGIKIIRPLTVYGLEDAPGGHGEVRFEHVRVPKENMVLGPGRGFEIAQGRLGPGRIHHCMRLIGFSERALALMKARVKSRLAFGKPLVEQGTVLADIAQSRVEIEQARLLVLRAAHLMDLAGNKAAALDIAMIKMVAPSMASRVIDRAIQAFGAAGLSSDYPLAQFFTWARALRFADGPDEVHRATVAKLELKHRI
# What was measured:
# Assay in all cases: log2 fold change, soluble protein after heating vs DMSO (PISA); higher = thermal stabilisation; K562 cells, 10 uM, 30 min; active = over 0.2 and 3.5 SD of the protein, either way, in both replicates (recomputed)
# erlotinib = compound: C#Cc1cccc(Nc2ncnc3cc(OCCOC)c(OCCOC)cc23)c1 [erlotinib]
# In short: (§1)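 Aliquots of K562 cells (2×10^6 cells/mL) treated with 10 μM compound for 30 min were heated for 3 min over 48°C-58°C. After pooling and extraction in PBS with 0.5% NP-40 at 4°C, soluble protein from a 21,000xg, 90 min spin was quantified by TMTpro 16plex LC-MS/MS with channel sums equalised. Thermal stability is expressed against control samples, from duplicates, as a log2 fold change.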
# [1] = compound: C/C(=N\NC(=O)C1=CC(=CC=C1)S(=O)(=O)N2CCOCC2)/C3=C(C=CC(=C3)Cl)O
# In short: as §1
# [2] = compound: C1=CC(=CC=C1C2=NC3=C(N2)C=C(C=C3)C(=O)N)OC4=CC=C(C=C4)Cl
# In short: as §1
# [3] = compound: C1=CC2=C(C=CC(=C2)/C=C\3/C(=O)NC(=NCC4=CC=CS4)S3)N=C1
# In short: as §1
# [4] = compound: C1=CC2=NC=CN=C2C=C1/C=C/3\C(=O)NC(=O)S3
# In short: as §1
# [5] = compound: C1=CC=C(C=C1)C2=NC(=C(N2)C3=CC=NC=C3)C4=CC(=C(C=C4)Cl)O
# In short: as §1
# [6] = compound: C1=CC=C2C(=C1)C3=NNC4=CC=CC(=C43)C2=O
# In short: as §1
# [7] = compound: C1CCN(C1)C(=O)NC2=CC=CC(=C2)NC3=NC=C(C(=N3)NCCC4=CN=CN4)Br
# In short: as §1
# [8] = compound: C1CN(CCC1(CC2=CC=C(C=C2)Cl)N)C3=NC=NC4=C3C=CN4
# In short: as §1
# [9] = compound: C1=CC(=C(C=C1Cl)C2=NC3=NC=CN=C3C(=N2)NC4=CC=NC=C4)F
# In short: as §1
target,measurement,setting,value
ABHD5 (UniProt Q8WTS1),log2 fold change,erlotinib,inactive: 0.007
same,log2 fold change,[1],inactive: 0.024
same,log2 fold change,[2],inactive: -0.083
same,log2 fold change,[3],inactive: 0.108
same,log2 fold change,[4],inactive: -0.141
same,log2 fold change,[5],inactive: -0.073
same,log2 fold change,[6],inactive: -0.044
same,log2 fold change,[7],inactive: -0.179
same,log2 fold change,[8],inactive: 0.043
ABCB1 (UniProt P08183),log2 fold change,[1],inactive: -0.476
same,log2 fold change,[3],inactive: 0.112
same,log2 fold change,[6],inactive: -0.128
same,log2 fold change,[7],inactive: 0.008
same,log2 fold change,[8],inactive: -0.005
ADAMTS13 (UniProt Q76LX8),log2 fold change,[1],inactive: -0.078
same,log2 fold change,[9],inactive: 0.192
same,log2 fold change,[3],inactive: -0.043
same,log2 fold change,[6],inactive: -0.174
ADAM8 (UniProt P78325),log2 fold change,erlotinib,inactive: 0.032
same,log2 fold change,[9],inactive: 0
same,log2 fold change,[2],inactive: 0.002
ACTB (UniProt E7EVS6),log2 fold change,erlotinib,inactive: 0.256
same,log2 fold change,[2],inactive: -0.228
ADAMTS5 (UniProt Q9UNA0),log2 fold change,erlotinib,inactive: 0.186
same,log2 fold change,[1],active: -0.518
same,log2 fold change,[2],inactive: -0.124
same,log2 fold change,[3],inactive: 0.171
same,log2 fold change,[4],inactive: 0.012
same,log2 fold change,[5],inactive: 0.072
same,log2 fold change,[6],inactive: 0.043
same,log2 fold change,[7],inactive: -0.06
same,log2 fold change,[8],inactive: 0.113
ABCA8 isoform 3 (UniProt O94911),log2 fold change,erlotinib,inactive: 0.145
same,log2 fold change,[2],inactive: -0.075
same,log2 fold change,[4],inactive: -0.173
same,log2 fold change,[7],inactive: 0.217
same,log2 fold change,[8],inactive: 0.162
ABRACL (UniProt Q9P1F3),log2 fold change,[4],inactive: 0.161
same,log2 fold change,[5],inactive: 0.083
AARSD1 (UniProt Q9BTE6),log2 fold change,erlotinib,inactive: 0.131
same,log2 fold change,[1],inactive: -0.415
same,log2 fold change,[2],inactive: 0.054
same,log2 fold change,[3],inactive: -0.063
same,log2 fold change,[4],inactive: -0.117
same,log2 fold change,[6],inactive: 0.197
ACOX1 isoform 3 (UniProt Q15067),log2 fold change,[7],inactive: 0.198
same,log2 fold change,[8],inactive: 0.063
ACTC1 (UniProt P68032),log2 fold change,erlotinib,inactive: 0.209
same,log2 fold change,[2],inactive: 0.015
ACSL6 isoform 1 (UniProt Q9UKU0),log2 fold change,erlotinib,inactive: -0.066
same,log2 fold change,[9],inactive: 0.02
same,log2 fold change,[2],inactive: 0.025
same,log2 fold change,[4],inactive: -0.083
same,log2 fold change,[5],inactive: -0.061
same,log2 fold change,[7],inactive: -0.03
same,log2 fold change,[8],inactive: 0.04
ACSF2 isoform 2 (UniProt Q96CM8),log2 fold change,erlotinib,inactive: 0.282
same,log2 fold change,[2],inactive: -0.163
same,log2 fold change,[5],inactive: 0.135
ACOT7 (UniProt K7EKP8),log2 fold change,[1],inactive: -0.176
same,log2 fold change,[3],inactive: 0.09
same,log2 fold change,[6],inactive: 0.03
ABCB5 (UniProt Q2M3G0),log2 fold change,erlotinib,inactive: 0.023
same,log2 fold change,[2],inactive: 0.005
same,log2 fold change,[4],inactive: -0.069
ACTG1 (UniProt K7EM38),log2 fold change,[1],inactive: -0.21
same,log2 fold change,[9],inactive: 0.157
same,log2 fold change,[3],inactive: 0.343
same,log2 fold change,[5],inactive: 0.212
same,log2 fold change,[6],inactive: 0.272
same,log2 fold change,[7],inactive: 0.106
same,log2 fold change,[8],inactive: -0.204
ACTG1 (UniProt I3L4N8),log2 fold change,erlotinib,inactive: -0.176
same,log2 fold change,[2],inactive: -0.2
same,log2 fold change,[5],inactive: 0.108
ACAA2 (UniProt K7ER88),log2 fold change,[1],inactive: 0.2
same,log2 fold change,[9],inactive: 0.13
same,log2 fold change,[3],inactive: -0.083
same,log2 fold change,[4],inactive: 0.261
same,log2 fold change,[6],inactive: 0.013
ACTR3B (UniProt Q9P1U1),log2 fold change,erlotinib,inactive: -0.033
same,log2 fold change,[2],inactive: 0.073
same,log2 fold change,[5],inactive: -0.078
same,log2 fold change,[7],inactive: -0.012
same,log2 fold change,[8],inactive: 0.145
ABHD4 (UniProt Q8TB40),log2 fold change,erlotinib,inactive: 0.16
same,log2 fold change,[9],inactive: -0.316
same,log2 fold change,[2],inactive: -0.247
same,log2 fold change,[4],inactive: -0.26
ACYP2 (UniProt P14621),log2 fold change,erlotinib,inactive: 0.081
same,log2 fold change,[2],inactive: 0.017
same,log2 fold change,[7],inactive: -0.072
same,log2 fold change,[8],inactive: 0.204
AASDH (UniProt Q4L235),log2 fold change,erlotinib,inactive: 0.113
same,log2 fold change,[9],inactive: 0.037
same,log2 fold change,[2],inactive: 0.048
same,log2 fold change,[4],inactive: 0.158
same,log2 fold change,[5],inactive: 0.003
same,log2 fold change,[7],inactive: -0.058
same,log2 fold change,[8],inactive: 0.034
ABITRAM (UniProt Q9NX38),log2 fold change,[1],inactive: 0.084
same,log2 fold change,[9],inactive: 0.029
same,log2 fold change,[3],inactive: 0.018
same,log2 fold change,[4],inactive: 0.023
same,log2 fold change,[5],inactive: -0.05
same,log2 fold change,[6],inactive: 0.034
same,log2 fold change,[7],inactive: -0.037
same,log2 fold change,[8],inactive: 0.018
ABCF1 (UniProt Q5STZ8),log2 fold change,[1],inactive: 0.075
same,log2 fold change,[3],inactive: -0.128
same,log2 fold change,[4],inactive: -0.08
same,log2 fold change,[6],inactive: -0.088
same,log2 fold change,[7],inactive: -0.061
same,log2 fold change,[8],inactive: 0.001
ACCS (UniProt Q96QU6),log2 fold change,erlotinib,inactive: 0.132
same,log2 fold change,[9],inactive: 0.01
same,log2 fold change,[2],inactive: -0.038
same,log2 fold change,[4],inactive: -0.071
same,log2 fold change,[5],inactive: 0.11
same,log2 fold change,[7],inactive: -0.229
same,log2 fold change,[8],inactive: 0.096
ADAD1 (UniProt Q96M93),log2 fold change,erlotinib,inactive: 0.205
same,log2 fold change,[2],inactive: 0.01
same,log2 fold change,[4],inactive: 0.031
same,log2 fold change,[5],inactive: -0.405
same,log2 fold change,[7],inactive: 0.094
same,log2 fold change,[8],inactive: -0.025
ACAD10 isoform 5 (UniProt Q6JQN1),log2 fold change,erlotinib,inactive: 0.195
same,log2 fold change,[1],inactive: 0.071
same,log2 fold change,[2],inactive: -0.099
same,log2 fold change,[3],inactive: 0.138
same,log2 fold change,[5],inactive: -0.509
same,log2 fold change,[6],inactive: 0.1
ABCB11 (UniProt O95342),log2 fold change,[5],inactive: 0.079
same,log2 fold change,[7],inactive: 0.086
same,log2 fold change,[8],inactive: 0.086
"ACAT1, A0A5F9ZHJ0",log2 fold change,[1],inactive: 0.034
same,log2 fold change,[9],inactive: 0.148
same,log2 fold change,[3],inactive: 0.183
same,log2 fold change,[4],inactive: 0.044
same,log2 fold change,[6],inactive: -0.078
same,log2 fold change,[7],inactive: -0.034
same,log2 fold change,[8],inactive: 0.057
ABAT (UniProt P80404),log2 fold change,[9],inactive: 0.108
ABHD3 (UniProt Q8WU67),log2 fold change,erlotinib,inactive: 0.291
same,log2 fold change,[2],inactive: -0.127

# 6 entries drawn at random from those above:
target,measurement,setting,value
ABCB1 (UniProt P08183),log2 fold change,[7],inactive: 0.008
ACTG1 (UniProt K7EM38),log2 fold change,[9],inactive: 0.157
ABHD5 (UniProt Q8WTS1),log2 fold change,[4],inactive: -0.141
ACAD10 isoform 5 (UniProt Q6JQN1),log2 fold change,[6],inactive: 0.1
ADAMTS5 (UniProt Q9UNA0),log2 fold change,[6],inactive: 0.043
"ACAT1, A0A5F9ZHJ0",log2 fold change,[6],inactive: -0.078

# For reference, part of the list above:
target,measurement,setting,value
ABCB11 (UniProt O95342),log2 fold change,[5],inactive: 0.079
same,log2 fold change,[7],inactive: 0.086
same,log2 fold change,[8],inactive: 0.086
"ACAT1, A0A5F9ZHJ0",log2 fold change,[1],inactive: 0.034

# — the supplement of paper PMC10849652
